In patent publication CN116963747A one finds binding data, which are given here for 2 substances.

Amino acid sequences for entries named in this document (tags omitted). A change or cut given only in a name is not applied to a line headed by its entry. Residues count along the entry.
UniProt P29350: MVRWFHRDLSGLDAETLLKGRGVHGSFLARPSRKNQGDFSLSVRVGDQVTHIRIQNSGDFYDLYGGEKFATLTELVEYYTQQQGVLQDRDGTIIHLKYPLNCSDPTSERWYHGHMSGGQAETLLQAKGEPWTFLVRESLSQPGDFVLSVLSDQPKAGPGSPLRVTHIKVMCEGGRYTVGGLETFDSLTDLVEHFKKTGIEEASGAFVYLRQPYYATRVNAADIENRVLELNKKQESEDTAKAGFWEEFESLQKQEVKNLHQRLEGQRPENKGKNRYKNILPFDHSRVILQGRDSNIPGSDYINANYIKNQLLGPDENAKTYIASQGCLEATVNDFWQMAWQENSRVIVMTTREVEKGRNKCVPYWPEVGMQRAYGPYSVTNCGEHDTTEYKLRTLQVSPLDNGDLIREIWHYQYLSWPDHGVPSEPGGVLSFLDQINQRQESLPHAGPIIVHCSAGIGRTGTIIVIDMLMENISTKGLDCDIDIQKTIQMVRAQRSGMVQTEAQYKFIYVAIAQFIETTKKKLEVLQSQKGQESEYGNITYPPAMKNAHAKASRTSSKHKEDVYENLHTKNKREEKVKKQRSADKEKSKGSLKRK
UniProt O75022, residues 465-631: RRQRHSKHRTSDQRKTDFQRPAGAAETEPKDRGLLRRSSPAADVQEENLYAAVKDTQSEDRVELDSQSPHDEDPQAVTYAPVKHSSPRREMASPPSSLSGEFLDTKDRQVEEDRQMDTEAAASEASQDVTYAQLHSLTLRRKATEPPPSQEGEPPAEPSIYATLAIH
UniProt P78310: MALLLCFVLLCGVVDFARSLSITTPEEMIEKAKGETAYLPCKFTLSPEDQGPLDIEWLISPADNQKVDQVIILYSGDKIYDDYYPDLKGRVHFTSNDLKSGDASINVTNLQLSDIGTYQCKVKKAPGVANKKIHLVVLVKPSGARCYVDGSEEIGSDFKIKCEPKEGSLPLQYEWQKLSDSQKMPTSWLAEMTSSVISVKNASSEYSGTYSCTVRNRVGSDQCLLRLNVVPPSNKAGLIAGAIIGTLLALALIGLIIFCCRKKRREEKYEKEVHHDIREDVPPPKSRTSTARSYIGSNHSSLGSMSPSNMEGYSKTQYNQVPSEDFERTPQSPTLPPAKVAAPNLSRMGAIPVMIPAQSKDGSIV

Results are given in words; binding and its absence hold for the method and conditions named. In cells and extracts the contact can be indirect. Some results given as binding are weak or reduced against the parent protein; the word gives no strength. For some assays here: Tags and fused reporters may be left off the sequences shown.

The target of assay [1] is T1, 经纯化的GST-TRAF2 (MyBioSource, MBS515700) (UniProt Q12933).
T1 sequence (looked up): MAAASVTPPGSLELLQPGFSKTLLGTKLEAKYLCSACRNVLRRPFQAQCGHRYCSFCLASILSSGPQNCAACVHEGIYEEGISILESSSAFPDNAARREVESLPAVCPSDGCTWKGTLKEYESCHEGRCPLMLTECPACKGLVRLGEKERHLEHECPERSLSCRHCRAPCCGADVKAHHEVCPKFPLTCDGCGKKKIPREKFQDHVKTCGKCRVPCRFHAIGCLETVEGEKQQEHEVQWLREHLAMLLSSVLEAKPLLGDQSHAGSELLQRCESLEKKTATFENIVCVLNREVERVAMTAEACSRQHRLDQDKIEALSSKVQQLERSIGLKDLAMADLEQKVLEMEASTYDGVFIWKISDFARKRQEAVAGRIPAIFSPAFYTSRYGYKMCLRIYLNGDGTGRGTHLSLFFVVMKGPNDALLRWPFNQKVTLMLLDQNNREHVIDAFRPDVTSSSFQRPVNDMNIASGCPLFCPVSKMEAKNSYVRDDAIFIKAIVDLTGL
The assay can be described thus: in vitro pull-down: purified GST-TRAF2 with purified B3ICDhFc.

The target of assay [2] is T1, 经纯化的GST-TRAF2 (MyBioSource, MBS515700). Kind of assay: in vitro pull-down: purified GST-TRAF2 with B3ICDhFc on Dynabeads protein A.
The target in a further assay is T2, TRAF2 (human) (UniProt Q12933).
T2 sequence (looked up): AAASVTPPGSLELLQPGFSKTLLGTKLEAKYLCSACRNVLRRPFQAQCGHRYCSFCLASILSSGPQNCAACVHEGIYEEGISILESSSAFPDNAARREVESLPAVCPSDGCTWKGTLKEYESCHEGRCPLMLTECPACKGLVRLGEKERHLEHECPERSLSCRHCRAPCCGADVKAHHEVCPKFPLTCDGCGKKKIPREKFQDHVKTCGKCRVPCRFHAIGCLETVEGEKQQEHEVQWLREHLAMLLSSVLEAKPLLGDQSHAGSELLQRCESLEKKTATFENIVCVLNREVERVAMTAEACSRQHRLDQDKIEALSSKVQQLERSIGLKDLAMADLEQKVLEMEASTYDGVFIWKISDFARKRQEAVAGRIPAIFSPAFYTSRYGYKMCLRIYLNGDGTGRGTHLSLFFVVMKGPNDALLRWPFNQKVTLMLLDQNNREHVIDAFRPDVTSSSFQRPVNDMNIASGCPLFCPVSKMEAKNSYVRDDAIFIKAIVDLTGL
The assay can be described thus: co-IP of SHP-1 or SHP-2 with TRAF2 and CARECD-B3ICDhFc in 293T cells.

Assay [3] has as its target SHP-1 (UniProt P29350). Kind of assay: co-IP of SHP-1 with TRAF2 and CARECD-B3ICDhFc in 293T cells, with or without Lyn.
Assay [4] addresses SHP-1 (UniProt P29350). Kind of assay: co-IP of exogenous SHP-1 with CARECD-B3ICDhFc, with Lyn, in 293T cells.

As for “B3ICDhFc (LILRB3胞内结构域, C末端与hFc融合) (from UniProt O75022 465-631) (Fc fusion)”, the binding result in assay [1] and in assay [2] was “binds” in each case.
For “CARECD-B3ICD-hFc (from UniProt P78310 20-237; O75022 444-631) (Fc fusion)”, the binding result in the assay with TRAF2 (human), in the assay with SHP-1 [3] and with SHP-1 [4] was “binds” in each case.
